Data as given in PubChem BioAssay AID686937 (Drosophila RNAi Screening Center, 2013)

- Assay: 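Genes in the fly needed for secretion of protein constitutively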 (primary screen)
- System: Drosophila S2 cells expressing secreted horseradish peroxidase
- Knock-down reagent: long dsRNA against Drosophila genes
- Timing: about 5.5 days (5 days dsRNA, then 12 h reporter induction)
- Conditions: reporter expression induced after 5 days of dsRNA, read 12 h later; inducer not stated
- Read-out: 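Chemiluminescent measurement of peroxidase in the medium 12 h after reporter induction, following 5 days of dsRNA, given as a z-score per plate; higher means more secretion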
- Scale: z-score: higher = more reporter secreted into medium
The deposit covers about 23,000 reagents; below is an unselected part of those with a known target gene and a result. 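Reduced-secretion tags in replicate 1 do not always agree with the z-scores; no criterion for assigning the tags was given.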 The numbers tell different reagents against one gene apart. A plus sign joins genes that one reagent is predicted to hit. Reagent sequences are not shown. Not given: the amount of reagent.

Gene | dsRNA no. | z-score, replicate 1 | z-score, replicate 2 | z-score, replicate 3 | z-score, replicate 4 | phenotype, replicate 1
CG34324 | 1 | 0.39 | 0.5 | – | – | –
CG15650 | 1 | -0.43 | 0.04 | – | – | –
CCAP (Crustacean cardioactive peptide) | 1 | 0.33 | 0.23 | – | – | –
DCP1 (Decapping protein 1) | 1 | -0.3 | -0.66 | – | – | –
hpRNA:CR32205 (hairpin RNA:CR32205) | 1 | 0.13 | 0 | – | – | –
hpRNA:CR32205 (hairpin RNA:CR32205) | 2 | 0.1 | 0.01 | – | – | –
lncRNA:CR32660 (long non-coding RNA:CR32660) | 1 | -0.18 | 0.11 | – | – | –
CG14507 | 1 | 0.07 | 0.27 | – | – | –
CG14346 | 1 | 0.36 | 0.38 | – | – | –
PPO2 (Prophenoloxidase 2) | 1 | -0.03 | 0.15 | – | – | –
CG7191 | 1 | 0.7 | 0.49 | – | – | –
Sdb (SAXO downstream of blistered) | 1 | 0.18 | -0.23 | – | – | –
Sdb (SAXO downstream of blistered) | 2 | 0.32 | -0.12 | – | – | –
Sdb (SAXO downstream of blistered) | 3 | 0.48 | 0.33 | – | – | –
yin | 1 | -0.02 | -0.15 | – | – | –
yin | 2 | 0.37 | 0.55 | – | – | –
Orc5 (Origin recognition complex subunit 5) | 1 | 0.4 | 0.22 | – | – | –
Asap (ArfGAP with SH3 domain, ankyrin repeat and PH domain) | 1 | 0.49 | 0.46 | – | – | –
Asap (ArfGAP with SH3 domain, ankyrin repeat and PH domain) | 2 | 0.16 | 0.26 | – | – | –
CG8997 | 1 | 0.03 | 0.21 | – | – | –
prc (pericardin) | 1 | 0.39 | 0.29 | – | – | –
Snm1 | 1 | 0.24 | 0.21 | – | – | –
CG8858 | 1 | 0.46 | 0.18 | – | – | –
ZnT35C (Zinc transporter 35C) | 1 | 0.26 | 0.11 | – | – | –
CG16853 | 1 | 0.08 | -0.34 | – | – | –
Tango4 (Transport and Golgi organization 4) | 1 | -4.96 | -2.34 | – | – | reduced secretion
CG11291 | 1 | 0.17 | 0.11 | – | – | –
grnd (grindelwald) | 1 | 0.31 | 0.52 | – | – | –
CG7341 | 1 | 0.42 | 0.28 | – | – | –
krz (kurtz) | 1 | 0.44 | 0.35 | – | – | –
CG10839 | 1 | 0.16 | 0.31 | – | – | –
wg (wingless) | 1 | 0.33 | 0.46 | – | – | –

7 entries from above, arranged by “z-score, replicate 1”, highest first.
Gene | dsRNA no. | z-score, replicate 1 | z-score, replicate 2 | z-score, replicate 3 | z-score, replicate 4 | phenotype, replicate 1
Asap (ArfGAP with SH3 domain, ankyrin repeat and PH domain) | 1 | 0.49 | 0.46 | – | – | –
CG8858 | 1 | 0.46 | 0.18 | – | – | –
Orc5 (Origin recognition complex subunit 5) | 1 | 0.4 | 0.22 | – | – | –
prc (pericardin) | 1 | 0.39 | 0.29 | – | – | –
Snm1 | 1 | 0.24 | 0.21 | – | – | –
Asap (ArfGAP with SH3 domain, ankyrin repeat and PH domain) | 2 | 0.16 | 0.26 | – | – | –
CG8997 | 1 | 0.03 | 0.21 | – | – | –

Further reagents follow:
Gene | dsRNA no. | z-score, replicate 1 | z-score, replicate 2 | z-score, replicate 3 | z-score, replicate 4 | phenotype, replicate 1
L (Lobe) | 1 | -0.12 | -0.06 | – | – | –
L (Lobe) | 2 | 0.18 | 0.17 | – | – | –
CG10472 | 1 | 0.3 | 0.15 | – | – | –
Mkp3 (Mitogen-activated protein kinase phosphatase 3) | 1 | 0.42 | 0.42 | – | – | –
Mkp3 (Mitogen-activated protein kinase phosphatase 3) | 2 | 0.43 | 0.27 | – | – | –
mthl10 (methuselah-like 10) | 1 | 0.19 | 0.13 | – | – | –
mthl10 (methuselah-like 10) | 2 | 0.61 | 0.42 | – | – | –
CG15747 | 1 | -0.34 | -0.19 | – | – | –
lbl (ladybird late) | 1 | 0.35 | 0.35 | – | – | –
Hexo1 (Hexosaminidase 1) | 1 | 0.15 | 0.18 | – | – | –
CG10252 | 1 | 0.04 | 0.13 | – | – | –
CG12115 | 1 | 0.47 | 0.4 | – | – | –
Fbp2 (Fat body protein 2) | 1 | 0.41 | 0.4 | – | – | –
skl (sickle) | 1 | -0.05 | 0.19 | – | – | –
CG3918 | 1 | -2.26 | -1.2 | – | – | reduced secretion
T3dh + pgc | 1 | 0.42 | 0.33 | – | – | –
CG12116 | 1 | 0.31 | 0.7 | – | – | –
Cdc37 (Cell division cycle 37) | 1 | 0.08 | 0.28 | – | – | –
spn-B (spindle B) | 1 | 0.4 | 0.14 | – | – | –
Snx6 (Sorting nexin 6) | 1 | 0.36 | 0.11 | – | – | –
Rab32 | 1 | 0.1 | – | – | – | –
Rab32 | 2 | 0.31 | 0.22 | – | – | –
mus304 (mutagen-sensitive 304) | 1 | 0.09 | 0.08 | – | – | –
CG18558 | 1 | 0.09 | 0.07 | – | – | –
CG18558 | 2 | 0.38 | -0.43 | – | – | –
Tlk (Tousled-like kinase) | 1 | 0.14 | -0.58 | – | – | –
Tlk (Tousled-like kinase) | 2 | 0.3 | -0.31 | – | – | –
Tlk (Tousled-like kinase) | 3 | -2.18 | 0.3 | – | – | reduced secretion
Tlk (Tousled-like kinase) | 4 | 2.87 | 1.74 | – | – | –
Tlk (Tousled-like kinase) | 5 | -0.94 | 0.02 | – | – | –
Tlk (Tousled-like kinase) | 6 | -0.13 | -0.21 | – | – | –
Grik | 1 | 0.51 | 0.35 | – | – | –
Grik | 2 | 0.18 | 0.05 | – | – | –
kek2 (kekkon 2) | 1 | 0.28 | 0.48 | – | – | –
Kdm2 (Lysine demethylase 2) | 1 | 0.22 | 0.63 | – | – | –
MFS15 (Major Facilitator Superfamily Transporter 15) | 1 | 0.21 | -0.17 | – | – | –
RecQ4 (RecQ4 helicase) | 1 | 0.15 | -0.18 | – | – | –
CG15130 | 1 | 0.2 | 0.14 | – | – | –
CG12384 | 1 | 0.23 | 0.42 | -0.25 | -0.38 | –
Ugt37A1 (UDP-glycosyltransferase family 37 member A1) | 1 | 0.33 | 0.32 | – | – | –
Skp2 + CG1103 | 1 | 0.13 | 0.06 | – | – | –
Skp2 + CG1103 | 2 | -0.05 | -0.05 | – | – | –
CG5194 | 1 | 0.24 | 0.33 | – | – | –
muc (midline uncoordinated) | 1 | 0 | 0.16 | – | – | –
muc (midline uncoordinated) | 2 | 0.07 | -0.13 | – | – | –
galla-1 | 1 | 0.45 | 0.49 | – | – | –
CG7368 | 1 | 0.02 | 0.58 | 0.18 | 0.14 | –
CG7368 | 2 | -0.88 | -0.14 | – | – | –
tau | 1 | -0.48 | -1.02 | – | – | –
X11L | 1 | 0.23 | 0.49 | 0.69 | 0.12 | –
X11L | 2 | 0.42 | 0.64 | – | – | –
